Assay results: US9835558B2, “Aggregation-induced emission luminogen having an peptide sequence and its uses thereof” (priority 2015, dated 2017)
Part of at least one peptide drawing is inferred or uncertain, most often the ends. Residues, ends and D or L forms follow the SMILES beside them. *: point of attachment. X1 = O=C(COc1ccc(C(=C(c2ccccc2)c2ccccc2)c2ccccc2)cc1)*; Palmitoyl = CCCCCCCCCCCCCCCC(=O)*

Legend:
[1] = dissolution and aggregate formation in water (fluorescence, TEM); type: physicochemical
[2] = test system: MCF-7 cells; experiment: cell membrane staining of live cells viewed by CLSM; type: cell-based, human

In the case of `CCCCCCCCCCCCCCCC(=O)NCCCC[C@H](NC(=O)COc1ccc(C(=C(c2ccccc2)c2ccccc2)c2ccccc2)cc1)C(=O)N[C@@H](CCCNC(=N)N)C(=O)N[C@@H](CCCNC(=N)N)C(=O)N[C@@H](CCCNC(=N)N)C(=O)N[C@@H](CCCNC(=N)N)C(N)=O` [TR4] (X1-K(Palmitoyl)RRRR-NH2), the “concentration at which the solution turned fluorescent, indicative of aggregate formation” value ([1]; in water) is reported as no less than 200 µM, the dissolution in water ([1]; low concentrations (<200 μM) in water) is reported as “dissolved completely” and the “fluorescent staining of live cells” value ([2]; TR4 50 μM, CLSM) is reported as “bright fluorescence was observed around the cell membrane”. The “labeling of nuclear membrane” value ([2]; TR4 50 μM, incubation time 60 min) was “the nuclear membrane was also labeled” and the “labeling of nuclear membrane” value ([2]; TR4 70 μM, 30 min, data not shown) was “the nuclear membrane was brightly labeled”.
